Read-outs that look alike come from different tables or passages of the source. No constants are given. Whether binding was seen depends on the method and setting. Binding seen in cells or lysates may run through a third protein. A yes stands for co-enrichment or nearness to the bait. Other partners may have been found.
Legend:
Assay in all cases: affinity purification with mass spectrometry
[1] = target: 3xFlag-, 6xHis-tagged GIGANTEA protein (GI:3F6H) (Arabidopsis thaliana) (UniProt Q9SQI2)
[2] = target: 3xFlag-, 6xHis-tagged GIGANTEA protein (GI:3F6H) (Arabidopsis thaliana) (UniProt Q9SQI2); remark: listed apart in the source
[3] = target: 3xFlag-, 6xHis-tagged GIGANTEA protein (GI:3F6H) (Arabidopsis thaliana) (UniProt Q9SQI2); remark: listed apart in the source
[4] = target: 3xFlag-, 6xHis-tagged GIGANTEA protein (GI:3F6H) (Arabidopsis thaliana) (UniProt Q9SQI2); remark: listed apart in the source

Protein sequences, listed by entry. Tags and fused reporters are not part of them.
UniProt Q9SQI2: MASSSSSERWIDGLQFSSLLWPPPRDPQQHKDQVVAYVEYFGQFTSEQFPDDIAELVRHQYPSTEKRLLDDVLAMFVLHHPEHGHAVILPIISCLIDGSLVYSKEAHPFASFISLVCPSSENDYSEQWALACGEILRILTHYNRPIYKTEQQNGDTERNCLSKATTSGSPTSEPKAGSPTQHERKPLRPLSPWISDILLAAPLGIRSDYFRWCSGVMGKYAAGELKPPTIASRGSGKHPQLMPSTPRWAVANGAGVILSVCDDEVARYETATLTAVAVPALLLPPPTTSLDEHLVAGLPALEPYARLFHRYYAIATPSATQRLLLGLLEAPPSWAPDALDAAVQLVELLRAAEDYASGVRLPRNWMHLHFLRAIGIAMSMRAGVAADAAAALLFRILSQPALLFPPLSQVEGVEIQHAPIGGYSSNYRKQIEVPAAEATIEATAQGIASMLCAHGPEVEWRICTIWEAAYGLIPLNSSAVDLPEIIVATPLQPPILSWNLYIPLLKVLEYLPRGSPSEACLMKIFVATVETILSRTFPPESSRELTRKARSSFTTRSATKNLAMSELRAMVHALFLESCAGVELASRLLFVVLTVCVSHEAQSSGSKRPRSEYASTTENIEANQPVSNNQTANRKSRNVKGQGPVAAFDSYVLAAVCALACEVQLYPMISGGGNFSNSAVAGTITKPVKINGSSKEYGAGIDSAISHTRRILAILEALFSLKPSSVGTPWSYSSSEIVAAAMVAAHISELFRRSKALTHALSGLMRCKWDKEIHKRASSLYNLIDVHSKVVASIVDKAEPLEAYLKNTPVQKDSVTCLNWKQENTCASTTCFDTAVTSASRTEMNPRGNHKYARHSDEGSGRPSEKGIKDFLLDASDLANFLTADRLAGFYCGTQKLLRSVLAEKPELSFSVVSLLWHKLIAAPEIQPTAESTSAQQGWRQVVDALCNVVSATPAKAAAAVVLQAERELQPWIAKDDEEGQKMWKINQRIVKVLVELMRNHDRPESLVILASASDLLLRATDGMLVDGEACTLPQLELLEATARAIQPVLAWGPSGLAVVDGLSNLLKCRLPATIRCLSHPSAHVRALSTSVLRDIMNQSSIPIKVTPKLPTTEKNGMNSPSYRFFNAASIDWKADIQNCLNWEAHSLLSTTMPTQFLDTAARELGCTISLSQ
UniProt O24456: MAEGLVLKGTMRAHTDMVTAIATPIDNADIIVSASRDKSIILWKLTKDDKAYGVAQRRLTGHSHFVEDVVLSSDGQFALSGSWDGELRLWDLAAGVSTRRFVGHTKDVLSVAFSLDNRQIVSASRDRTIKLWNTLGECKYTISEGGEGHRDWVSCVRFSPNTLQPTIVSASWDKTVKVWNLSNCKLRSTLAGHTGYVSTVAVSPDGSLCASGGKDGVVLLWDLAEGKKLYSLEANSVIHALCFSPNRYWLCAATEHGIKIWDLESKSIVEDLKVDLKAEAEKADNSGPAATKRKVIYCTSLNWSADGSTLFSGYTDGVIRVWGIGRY
UniProt Q9M888: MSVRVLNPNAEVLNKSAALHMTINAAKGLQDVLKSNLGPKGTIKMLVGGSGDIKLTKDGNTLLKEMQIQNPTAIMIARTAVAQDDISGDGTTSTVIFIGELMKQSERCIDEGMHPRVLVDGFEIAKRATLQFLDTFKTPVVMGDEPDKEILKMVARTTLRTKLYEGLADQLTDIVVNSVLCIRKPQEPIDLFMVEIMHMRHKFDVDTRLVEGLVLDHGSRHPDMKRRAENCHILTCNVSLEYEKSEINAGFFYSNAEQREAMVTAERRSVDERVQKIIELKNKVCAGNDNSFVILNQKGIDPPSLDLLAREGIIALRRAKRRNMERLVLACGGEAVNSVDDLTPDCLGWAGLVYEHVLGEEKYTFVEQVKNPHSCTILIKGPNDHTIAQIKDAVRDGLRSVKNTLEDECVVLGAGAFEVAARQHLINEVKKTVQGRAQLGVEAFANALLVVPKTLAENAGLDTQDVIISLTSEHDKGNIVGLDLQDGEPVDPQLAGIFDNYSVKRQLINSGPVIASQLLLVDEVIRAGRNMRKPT
UniProt P22953: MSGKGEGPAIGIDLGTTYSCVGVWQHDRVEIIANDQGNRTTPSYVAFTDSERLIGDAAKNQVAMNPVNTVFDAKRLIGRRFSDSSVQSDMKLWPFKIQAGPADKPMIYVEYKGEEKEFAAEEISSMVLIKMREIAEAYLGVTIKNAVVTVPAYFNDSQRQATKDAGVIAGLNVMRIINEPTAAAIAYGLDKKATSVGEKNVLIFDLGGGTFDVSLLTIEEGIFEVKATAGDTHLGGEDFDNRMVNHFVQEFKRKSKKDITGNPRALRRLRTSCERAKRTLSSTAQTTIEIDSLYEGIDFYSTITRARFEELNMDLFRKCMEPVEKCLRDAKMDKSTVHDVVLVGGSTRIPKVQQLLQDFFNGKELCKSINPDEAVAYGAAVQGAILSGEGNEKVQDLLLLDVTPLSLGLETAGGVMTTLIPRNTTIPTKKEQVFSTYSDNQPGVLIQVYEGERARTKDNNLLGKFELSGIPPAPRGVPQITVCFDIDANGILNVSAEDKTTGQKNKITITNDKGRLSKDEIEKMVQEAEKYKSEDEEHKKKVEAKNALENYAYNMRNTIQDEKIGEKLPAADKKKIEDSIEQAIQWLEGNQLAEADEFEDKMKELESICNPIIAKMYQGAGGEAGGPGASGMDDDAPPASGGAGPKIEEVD
UniProt Q9C4Z6: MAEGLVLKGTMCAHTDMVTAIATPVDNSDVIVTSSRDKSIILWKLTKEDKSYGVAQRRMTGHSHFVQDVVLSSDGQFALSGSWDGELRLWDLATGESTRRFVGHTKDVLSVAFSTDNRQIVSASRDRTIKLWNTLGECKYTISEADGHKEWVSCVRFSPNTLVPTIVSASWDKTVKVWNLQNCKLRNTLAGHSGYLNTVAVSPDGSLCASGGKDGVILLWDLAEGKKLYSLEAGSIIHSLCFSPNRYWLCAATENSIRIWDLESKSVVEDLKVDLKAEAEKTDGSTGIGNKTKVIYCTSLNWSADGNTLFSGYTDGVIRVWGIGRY
UniProt Q9CAI7: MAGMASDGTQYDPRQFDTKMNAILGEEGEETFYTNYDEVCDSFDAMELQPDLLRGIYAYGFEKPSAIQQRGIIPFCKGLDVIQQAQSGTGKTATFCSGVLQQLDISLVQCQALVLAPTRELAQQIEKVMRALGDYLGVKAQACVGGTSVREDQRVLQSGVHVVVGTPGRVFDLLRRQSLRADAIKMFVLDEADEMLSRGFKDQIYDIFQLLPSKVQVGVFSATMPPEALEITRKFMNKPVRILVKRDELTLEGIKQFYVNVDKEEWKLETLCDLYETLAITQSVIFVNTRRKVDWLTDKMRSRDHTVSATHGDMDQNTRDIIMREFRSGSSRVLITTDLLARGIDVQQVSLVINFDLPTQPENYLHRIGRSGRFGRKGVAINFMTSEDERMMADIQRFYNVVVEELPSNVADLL

| Molecule | binding [1] | binding [2] | binding [3] | further results |
| --- | --- | --- | --- | --- |
| RACK1A (from UniProt O24456 1-327) | binds |  |  |  |
| Cpn60 chaperonin family protein At3g02530 (from UniProt Q9M888 1-535) | binds |  |  |  |
| Hsp70 family protein At5g02500 (from UniProt P22953 1-651) | binds |  |  |  |
| TPR4 (from UniProt Q8VZ31) | binds |  |  |  |
| carbonic anhydrase At5g14740 (enzyme, UniProt P42737 72-331) RMGNESYEDAIEALKKLLIEKDDLKDVAAAKVKKITAELQAASSSDSKSFDPVERIKEGFVTFKKEKYETNPALYGELAKGQSPKYMVFACSDSRVCPSHVLDFHPGDAFVVRNIANMVPPFDKVKYAGVGAAIEYAVLHLKVENIVVIGHSACGGIKGLMSFPLDGNNSTDFIEDWVKICLPAKSKVLAESESSAFEDQCGRCEREAVNVSLANLLTYPFVREGVVKGTLALKGGYYDFVNGSFELWELQFGISPVHSI |  |  |  | binding [4]: binds |
| ubiquitin-specific protease 13 (enzyme, UniProt Q84WU2 1-1115) MTMMTPPPLDQQEDEEMLVPNPDLVEGPQPMEVAQTDPAATAVENPPPEDPPSLKFTWTIPMFTRLNTRKHYSDVFVVGGYKWRILIFPKGNNVDHLSMYLDVADAANLPYGWSRYSQFSLAVVNQVNNRYSIRKETQHQFNARESDWGFTSFMPLSELYEPTRGYLVNDTVLIEAEVAVRKVLDYWSYDSKKETGFVGLKNQGATCYMNSLLQTLYHIPYFRKAVYHMPTTENDAPTASIPLALQSLFYKLQYNDTSVATKELTKSFGWDTYDSFMQHDVQELNRVLCEKLEDKMKGTVVEGTIQKLFEGHHMNYIECINVDYKSTRKESFYDLQLDVKGCKDVYASFDKYVEVERLEGDNKYHAEGHDLQDAKKGVLFIDFPPVLQLQLKRFEYDFMRDTMVKINDRYEFPLQLDLDREDGRYLSPDADKSVRNLYTLHSVLVHSGGVHGGHYYAFIRPTLSDQWYKFDDERVTKEDVKRALEEQYGGEEELPQNNPGFNNPPFKFTKYSNAYMLVYIRESDKDKIICNVDEKDIAEHLRVRLKKEQEEKEDKRKYKAQAHLFTTIKVARDDDITEQIGKNIYFDLVDHEKVRSFRIQKQTPFQQFKEEVAKEFGVPVQLQRFWIWAKRQNHTYRPNRPLSPNEELQTVGQIREASNKANNAELKLFLEIERGPDDLPIPPPEKTSEDILLFFKLYDPENAVLRYVGRLMVKSSSKPMDIVGQLNKMAGFAPDEEIELFEEIKFEPCVMCEQIDKKTSFRLCQIEDGDIICYQKPLSIEESEFRYPDVPSFLEYVQNRELVRFRTLEKPKEDEFTMELSKLHTYDDVVERVAEKLGLDDPSKLRLTSHNCYSQQPKPQPIKYRGVDHLSDMLVHYNQTSDILYYEVLDIPLPELQGLKTLKVAFHSATKDEVIIHNIRLPKQSTVGDVINELKTKVELSHQDAELRLLEVFFHKIYKIFPSTERIENINDQYWTLRAEEIPEEEKNIGPNDRLIHVYHFTKEAGQNQQVQNFGEPFFLVIHEGETLEEIKTRIQKKLHVPDEDFAKWKFASFSMGRPDYLLDTDVVYNRFQRRDVYGAWEQYLGLEHIDNAPKRAYAANQNRHAYEKPVKIYN |  | binds | binds |  |
| Cpn60 chaperonin family protein At3g18190 (protein, UniProt Q9LV21 1-536) MAAVAAPMASKPRGSKAESFVDNKRREDIRFANINSARAVSDAVRTSLGPKGMDKMISTANGEVIITNDGATILNKMEVLQPAAKMLVELSKSQDSAAGDGTTTVVVIAGALLKECQSLLTNGIHPTVISDSLHKACGKAIDILTAMAVPVELTDRDSLVKSASTSLNSKVVSQYSTLLAPLAVDAVLSVIDPEKPEIVDLRDIKIVKKLGGTVDDTHTVKGLVFDKKVSRAAGGPTRVENAKIAVIQFQISPPKTDIEQSIVVSDYTQMDRILKEERNYILGMIKKIKATGCNVLLIQKSILRDAVTDLSLHYLAKAKIMVIKDVERDEIEFVTKTLNCLPIANIEHFRAEKLGHADLVEEASLGDGKILKITGIKDMGRTTSVLVRGSNQLVLDEAERSLHDALCVVRCLVSKRFLIAGGGAPEIELSRQLGAWAKVLHGMEGYCVKSFAEALEVIPYTLAENAGLNPIAIVTELRNKHAQGEINAGINVRKGQITNILEENVVQPLLVSTSAITLATECVRMILKIDDIVTVR |  |  | binds |  |

Now from value to molecule, other results behind:

| binding [1] | binding [2] | binding [3] | Molecule | further results |
| --- | --- | --- | --- | --- |
| binds |  |  | RACK1B (from UniProt Q9C4Z6 1-326) |  |
| binds |  |  | translation factor At1g72730 (from UniProt Q9CAI7 1-414) |  |
|  | binds |  | CYCLING DOF FACTOR 6 (endogenous) (protein, UniProt Q9LQX4 1-366) MSQVRDTPVKLFGWTITPVSHDPYSSSSHVLPDSSSSSSSSSLSLRPHMMNNQSVTDNTSLKLSSNLNNESKETSENSDDQHSEITTITSEEEKTTELKKPDKILPCPRCNSADTKFCYYNNYNVNQPRHFCRKCQRYWTAGGSMRIVPVGSGRRKNKGWVSSDQYLHITSEDTDNYNSSSTKILSFESSDSLVTERPKHQSNEVKINAEPVSQEPNNFQGLLPPQASPVSPPWPYQYPPNPSFYHMPVYWGCAIPVWSTLDTSTCLGKRTRDETSHETVKESKNAFERTSLLLESQSIKNETSMATNNHVWYPVPMTREKTQEFSFFSNGAETKSSNNRFVPETYLNLQANPAAMARSMNFRESI |  |
|  | binds | binds | ubiquitin-specific protease 12 (enzyme, UniProt Q9FPT1 1-1116) MTMMTPPPVDQPEDEEMLVPNSDLVDGPAQPMEVTQPETAASTVENQPAEDPPTLKFTWTIPNFSRQNTRKHYSDVFVVGGYKWRILIFPKGNNVDHLSMYLDVSDAASLPYGWSRYAQFSLAVVNQIHTRYTVRKETQHQFNARESDWGFTSFMPLSELYDPSRGYLVNDTVLVEAEVAVRKVLDYWSYDSKKETGFVGLKNQGATCYMNSLLQTLYHIPYFRKAVYHMPTTENDAPTASIPLALQSLFYKLQYNDTSVATKELTKSFGWDTYDSFMQHDVQELNRVLCEKLEDKMKGTVVEGTIQQLFEGHHMNYIECINVDFKSTRKESFYDLQLDVKGCKDVYASFDKYVEVERLEGDNKYHAEGHGLQDAKKGVLFIDFPPVLQLQLKRFEYDFMRDTMVKINDRYEFPLELDLDREDGKYLSPDADRSVRNLYTLHSVLVHSGGVHGGHYYAFIRPTLSDQWYKFDDERVTKEDLKRALEEQYGGEEELPQTNPGFNNNPPFKFTKYSNAYMLVYIRESDKDKIICNVDEKDIAEHLRVRLKKEQEEKEDKRRYKAQAHLYTIIKVARDEDLKEQIGKDIYFDLVDHDKVRSFRIQKQTPFQQFKEEVAKEFGVPVQLQRFWIWAKRQNHTYRPNRPLTPQEELQPVGQIREASNKANTAELKLFLEVEHLDLRPIPPPEKSKEDILLFFKLYDPEKAVLSYAGRLMVKSSSKPMDITGKLNEMVGFAPDEEIELFEEIKFEPCVMCEHLDKKTSFRLCQIEDGDIICFQKPLVNKEIECLYPAVPSFLEYVQNRQLVRFRALEKPKEDEFVLELSKQHTYDDVVEKVAEKLGLDDPSKLRLTSHNCYSQQPKPQPIKYRGVDHLSDMLVHYNQTSDILYYEVLDIPLPELQGLKTLKVAFHHATKEEVVIHNIRLPKQSTVGDVINELKTKVELSHPDAELRLLEVFYHKIYKIFPSTERIENINDQYWTLRAEEIPEEEKNIGPNDRLILVYHFAKETGQNQQVQNFGEPFFLVIHEGETLEEIKNRIQKKLHVSDEDFAKWKFAFMSMGRPEYLQDTDVVYNRFQRRDVYGAFEQYLGLEHADTTPKRAYAANQNRHAYEKPVKIYN |  |
|  |  | binds | Cpn60 chaperonin family protein At1g24510 (protein, UniProt O04450 1-535) MALAFDEFGRPFIILREQDQKTRLRGIDAQKANIAAGKAVARILRSSLGPKGMDKMLQGPDGDITITNDGATILEQMDVDNQIAKLMVELSRSQDYEIGDGTTGVVVMAGALLEQAERQLDRGIHPIRIAEGYEMASRVAVEHLERIAQKFEFDVNNYEPLVQTCMTTLSSKIVNRCKRSLAEIAVKAVLAVADLERRDVNLDLIKVEGKVGGKLEDTELIYGILIDKDMSHPQMPKQIEDAHIAILTCPFEPPKPKTKHKVDIDTVEKFETLRKQEQQYFDEMVQKCKDVGATLVICQWGFDDEANHLLMHRNLPAVRWVGGVELELIAIATGGRIVPRFQELTPEKLGKAGVVREKSFGTTKERMLYIEHCANSKAVTVFIRGGNKMMIEETKRSIHDALCVARNLIRNKSIVYGGGAAEIACSLAVDAAADKYPGVEQYAIRAFAEALDSVPMALAENSGLQPIETLSAVKSQQIKENIPFYGIDCNDVGTNDMREQNVFETLIGKQQQILLATQVVKMILKIDDVISNSEY |  |
|  | binds | binds | cystatin 1 (protein, UniProt Q945Q1 1-101) MADQQAGTIVGGVRDIDANANDLQVESLARFAVDEHNKNENLTLEYKRLLGAKTQVVAGTMHHLTVEVADGETNKVYEAKVLEKAWENLKQLESFNHLHDV |  |
|  | binds |  | 14-3-3λ protein (protein, UniProt P48349 1-248) MAATLGRDQYVYMAKLAEQAERYEEMVQFMEQLVTGATPAEELTVEERNLLSVAYKNVIGSLRAAWRIVSSIEQKEESRKNDEHVSLVKDYRSKVESELSSVCSGILKLLDSHLIPSAGASESKVFYLKMKGDYHRYMAEFKSGDERKTAAEDTMLAYKAAQDIAAADMAPTHPIRLGLALNFSVFYYEILNSSDKACNMAKQAFEEAIAELDTLGEESYKDSTLIMQLLRDNLTLWTSDMQEQMDEA |  |
|  | binds | binds | TCP-1/cpn60 chaperonin family protein At3g03960 (protein, UniProt Q94K05 1-549) MVGMSMQPYGIQSMLKEGYRHLSGLDEAVIKNIEACKELSTITRTSLGPNGMNKMVINHLDKLFVTNDAATIVNELEIQHPAAKLLVLAAKAQQEEIGDGANLTISFAGELLQNAEELIRMGLHPSEIISGYTKAVSKAVEILEQLVETGSETMDVRNKDEVISRMRAAVASKQFGQEEIICSLVTDACIQVCPKNPTNFNVDNVRVSKLLGGGLHNSCIVRGMVLKSDAVGSIKRMEKAKVAVFAGGVDTTATETKGTVLIHSAEQLENYAKTEEAKVEELIKAVAESGAKVIVSGGSIGEMALHFCERYKIMVLKISSKFELRRFCRTAGAVAHLKLSRPSPEDLGYVDSISVEEIGGVTVTIARNEEGGNSISTVVLRGSTDSILDDLERAVDDGVNTYKAMCRDSRIVPGAAATEIELAQRLKEYANAEIGLDKYAITKYAESFEFVPKTLADNAGLNAMEIIAALYTGHGSGNTKLGIDLEEGACKDVSETKVWDLFATKLFALKYASDAACTVLRVDQIIMAKPAGGPRRDAAQAAGAGAEED |  |

Reference: doi:10.1101/162271
